Source: patent US20250302039A1, “USE OF N-SUBSTITUTED PYRROLIDONES TO PROMOTE THE PENETRATION OF AGROCHEMICAL ACTIVE AGENTS” (priority 2016, published 2025)
Some entries share one result that the patent states for a list of compounds. At least one compound was matched to its structure with a doubt left.

Assay: Solutions of active ingredients in N-(n-butyl)-2-pyrrolidone
Type: physicochemical
Settings: solvent N-(n-butyl)-2-pyrrolidone; based on the total weight of the solution

In the case of `CO/C=C(/C(=O)OC)c1ccccc1Oc1cc(Oc2ccccc2C#N)ncn1` [azoxystrobin], the “amount of active ingredient in solutions prepared with N-(n-butyl)-2-pyrrolidone” value is reported as “greater than 20 % by weight”.
